In PMC9845307, “Arabidopsis LSH10 transcription factor and OTLD1 histone deubiquitinase interact and transcriptionally regulate the same target genes”:
These are yes or no findings as the source states them, for the method shown. In cells and extracts the contact can be indirect. For some of these results: Binding calls can cover weak binding; strength is not graded here. Sequences can lack the tags named with a protein.

How the values were obtained:
[1] = molecular target: OTLD1 tagged with a YFP half (BiFC) (Arabidopsis); assay: split reporter; BiFC: nEYFP- and cEYFP-tagged proteins transiently co-expressed in N. benthamiana leaves by agroinfiltration; confocal microscopy 2 days after infiltration
OTLD1-RFP (Arabidopsis) [2] = assay: FRET or BRET; sensitized emission FRET (SE-FRET): GFP donor, RFP acceptor, transiently co-expressed in N. benthamiana leaves; cell nuclei, confocal microscopy, PixFRET correction
OTLD1-RFP (Arabidopsis) [3] = assay: FRET or BRET; acceptor photobleaching FRET (AB-FRET): GFP donor, RFP acceptor, transiently co-expressed in N. benthamiana leaves; %AB-FRET = percent increase in GFP emission after RFP photobleaching, cell nucleus, n = 13 cells

binding [1] | binding (OTLD1-RFP (Arabidopsis) [3]) | Binder | binding (OTLD1-RFP (Arabidopsis) [2])
binds |  | LSH10 tagged with a YFP half (BiFC) (protein, UniProt Q9S7R3 1-177) MSSPRERGKSLMESSGSEPPVTPSRYESQKRRDWNTFGQYLKNQRPPVPMSHCSCNHVLDFLRYLDQFGKTKVHVPGCMFYGQPEPPAPCTCPLRQAWGSLDALIGRLRAAYEENGGPPETNPFASGAIRVYLREVRECQAKARGIPYKKKKKKKPTPEMGGGREDSSSSSSSFSFS | 
 |  | LSH10-GFP (protein, UniProt Q9S7R3 1-177) MSSPRERGKSLMESSGSEPPVTPSRYESQKRRDWNTFGQYLKNQRPPVPMSHCSCNHVLDFLRYLDQFGKTKVHVPGCMFYGQPEPPAPCTCPLRQAWGSLDALIGRLRAAYEENGGPPETNPFASGAIRVYLREVRECQAKARGIPYKKKKKKKPTPEMGGGREDSSSSSSSFSFS | binds
 | no binding | LSH4-GFP (protein, UniProt Q9LW68 1-195) MDHIIGFMGTTNMSHNTNLMIAAAATTTTTSSSSSSSSGGSGTNQLSRYENQKRRDWNTFGQYLRNHRPPLSLSRCSGAHVLEFLRYLDQFGKTKVHTHLCPFFGHPNPPAPCACPLRQAWGSLDALIGRLRAAFEENGGSPETNPFGARAVRLYLREVRDSQAKARGISYEKKKRKRPPPPLPPAQPAISSSPN | no binding
